Measured values taken from patent publication US9150829B2, “Culture of pluripotent and multipotent cells on microcarriers” (AGENCY FOR SCIENCE, TECHNOLOY AND RESEARCH, priority 2009, dated 2015).
For some assays here: At least one compound was matched to its structure with a doubt left. Some entries share one result that the patent states for a list of compounds.

How the values were obtained:
hESC (HES-2) = assay: Pluripotent marker expression in HES-2 on matrix free microcarriers with ROCK inhibitors; assay type: cell-based, human; conditions: 10 μM, daily continuous addition, after 9 weeks, DE53
Method: (§1) Briefly, expression levels of extracellular antigens TRA-1-60 and intracellular transcription factor, Oct-4 in hESC populations are assessed by immunofluorescence using flow cytometry. Cells are harvested as single cell suspensions using trypsin or trypLE express, filtered through a 40 μm sieve (BD) fixed, permeabilised (Caltag Laboratories) and incubated with primary antibodies to TRA-1-60 (1:50 dilution, Chemicon, MAB4360/4381) and to Oct-4 (1:20 dilution, Santa Cruz).
(§2) Cells are then washed with 1% BSA/PBS, and incubated in the dark with a 1:500 dilution of goat α-mouse antibody FITC-conjugated (DAKO). After incubation, the cells are again washed and resuspended in 1% BSA/PBS for analysis on a FACScan (Becton Dickinson FACS Calibur). All incubations are performed at room temperature for 15 min.
A range of ROCK inhibitors (at 10 μM) were tested for their ability to allow hESC (HES-2) cell culture on matrix free cellulose DE53 microcarriers. These included fasudil, hydroxyfasudil and […] and were compared to a control (DE53 microcarriers coated in Matrigel).

hESC = assay: FACS of pluripotent markers in hESC on microcarriers; assay type: cell-based, human; conditions: cellulose microcarriers without Matrigel, passage 0 and 1, compared to Matrigel control
Method: Characterisation was performed according to our recent paper by Oh et al., 2009 (Long term microcarrier suspension cultures of human embryonic stem cells, Stem Cell Research (2009)).
as §1, §2

SMILES: O=S(=O)(c1cccc2cnccc12)N1CCCNCC1 [HA-1077]
- expression of pluripotent marker Oct4 (hESC (HES-2)): 30-40%
- expression of pluripotent markers Oct4 and mAb 84 (hESC): stable expression
